1 substance from publication PMC7996170, “Novel Method for Quantifying AhR-Ligand Binding Affinities Using Microscale Thermophoresis” (Biosensors, 2021) can be followed below.

Amino acid sequences for entries named in this document (tags omitted). A change or cut given only in a name is not applied to a line headed by its entry. Chains listed by the source or under a name are the forms on record and can include a tag or linker. Residues count along the entry.
murine aryl hydrocarbon nuclear translocator, residues 85 to 465 (mARNT 85-465, ∆274–297, C256S, ∆351–358) (P53762, form named): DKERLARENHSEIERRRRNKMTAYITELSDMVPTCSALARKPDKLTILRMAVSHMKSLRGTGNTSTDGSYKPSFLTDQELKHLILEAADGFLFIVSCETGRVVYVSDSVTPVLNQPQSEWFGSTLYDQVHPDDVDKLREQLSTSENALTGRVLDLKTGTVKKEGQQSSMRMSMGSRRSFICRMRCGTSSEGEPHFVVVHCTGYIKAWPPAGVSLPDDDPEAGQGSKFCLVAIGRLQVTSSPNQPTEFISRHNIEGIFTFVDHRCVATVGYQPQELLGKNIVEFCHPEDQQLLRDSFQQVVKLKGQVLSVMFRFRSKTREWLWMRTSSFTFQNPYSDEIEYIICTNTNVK
UniProt P35869, residues 23-475: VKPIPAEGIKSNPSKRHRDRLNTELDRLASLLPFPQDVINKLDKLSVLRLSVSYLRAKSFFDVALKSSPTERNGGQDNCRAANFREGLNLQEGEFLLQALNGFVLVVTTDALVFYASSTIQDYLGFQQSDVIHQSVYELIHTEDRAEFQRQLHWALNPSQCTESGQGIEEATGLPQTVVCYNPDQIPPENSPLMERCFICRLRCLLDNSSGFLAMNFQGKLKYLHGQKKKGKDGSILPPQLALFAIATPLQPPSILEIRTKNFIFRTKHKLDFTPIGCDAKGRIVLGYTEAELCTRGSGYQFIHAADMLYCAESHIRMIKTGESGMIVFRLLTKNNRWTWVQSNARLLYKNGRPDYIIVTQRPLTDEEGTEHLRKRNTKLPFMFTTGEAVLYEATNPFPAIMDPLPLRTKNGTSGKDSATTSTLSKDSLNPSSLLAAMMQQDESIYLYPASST

These are yes or no findings as the source states them, for the method shown. Some results given as binding are weak or reduced against the parent protein; the word gives no strength.

This assay addresses murine aryl hydrocarbon nuclear translocator, residues 85 to 465 (mARNT 85-465, ∆274–297, C256S, ∆351–358) (mouse) (UniProt P53762). Description: co-purification (IMAC, heparin, SEC); both proteins co-expressed in E. coli BL21(DE3); HisTALON column, His6-tags removed with HRV 3C, HiTrap Heparin HP, then Superdex 200 10/300 GL in 20 mM HEPES pH 8.0, 200 mM NaCl, 5% glycerol, 5 mM DTT; fractions analysed by SDS-PAGE.

Turning to “human aryl hydrocarbon receptor, bHLH-PAS A-PAS B fragment (hAhR 23-475) (from UniProt P35869 23-475) (domain or fragment)”, the binding entry is “binds”.
